Source: patent US4587045A (SmithKline Beckman Corporation, priority 1985, dated 1986)
Some peptides are written in HELM: one residue between dots, names in brackets for other building blocks, links after the first $.

Test: general procedure: Boc solid-phase peptide synthesis; Boc-Arg(Tos) Merrifield resin; benzhydrylamine (BHA) resin; 4-methylbenzhydrylamine (MBHA) resin; DCC/HBT; DCC/DMAP for Pmp; preformed Boc symmetrical anhydrides

| Substance | crude yield (whole synthesis) [%] | isolated yield (whole synthesis) [%] | step yield (coupling step) [%] |
| --- | --- | --- | --- |
| PEPTIDE1{[Pmp].[D-Tyr(Et)].F.V.N.C.P.R.[am]}$PEPTIDE1,PEPTIDE1,1:R3-6:R3$$$V2.0 | 76 | 55 |  |
| PEPTIDE1{[Pmp].[dY].F.V.N.C.P.R}$PEPTIDE1,PEPTIDE1,1:R3-6:R3$$$V2.0 |  |  | 45 |
| Pmp(4-MeBzl)-D-Tyr(Et)-Phe(4'-Et)-Val-Asn-Cys-(4-MeBzl)-Pro-Arg(Tos)-BHA-resin | 42.7 |  |  |
